Test results from US11970512B2, “Amphotericin B derivatives with improved therapeutic index” (The Board of Trustees of the University of Illinois, priority 2013, dated 2024).
For some of these results: For at least one compound, name, drawing or mass did not settle the structure. Some of these results come from one statement about several compounds together.

Experiments:
[1] = cited from earlier work
[2] = cited from earlier work; remark: listed apart in the source
[3] = tested on: human erythrocytes; assay type: cell-based
Description: With efficient access to this novel AmB chemotype, ureas 2-4 were compared to AmB and a range of previously reported AmB derivatives in an in vitro antifungal and human cell toxicity screen. Yeast toxicity was measured with broth microdilution assays (MIC) against Saccharomyces cerevisiae. Human cell toxicity was studied by determining the amount of compound required to cause 90% hemolysis of human erythrocytes (EH90). […] Methyl esterification (AmBME) retains antifungal activity at 0.25 μM against S. cerevisiae, while decreasing hemolysis concentration to one third that seen with AmB. […] Hemolysis activity remained similar to AmBME and C41MeAmB. Bis-amino alkylated amide derivative AmBNR2 was previously shown to moderately improve the therapeutic index.^[19]
Each derivative proposed herein is tested for biological activity against both yeast and human cells to determine its therapeutic index. A broth microdilution experiment determines the MIC (minimum inhibitory concentration) of each derivative against S. cerevisiae and the clinically relevant C. albicans, thereby establishing the antifungal activity of each novel derivative. To test for toxicity against human cells, each compound is exposed to a hemolysis assay against red blood cells which determines the concentration required to cause 90% lysis of human red blood cells (EH90). […]

Compound | cholesterol binding [1] | ergosterol binding [2] | EH90 (μM) red blood cells ([3]; amount of compound required to cause 90% hemolysis of human erythrocytes) [µM] | EH90 as multiple of that observed with AmB ([3]; red blood cells, relative to AmB)
CC1C=CC=CC=CC=CC=CC=CC=CC(OC2CC(N)C(O)C(C)O2)CC2OC(O)(CC(O)CC(O)C(O)CCC(O)CC(O)CC(=O)OC(C)C(C)C1O)CC(O)C2C(=O)O (stereo not shown) [C2′deOAmB] | shows no binding to cholesterol | retains ergosterol-binding ability | – | –
CC1OC(O[C@H]2/C=C/C=C/C=C/C=C/C=C/C=C/C=C/[C@H](C)[C@@H](O)[C@@H](C)[C@H](C)OC(=O)C[C@H](O)C[C@H](O)CC[C@@H](O)[C@H](O)C[C@H](O)C[C@]3(O)C[C@H](O)[C@@H](NC(=O)NCCN)C(C2)O3)C(O)C(N)C1O (stereo partly shown) [AmBAU] | – | – | > 500 | greater than 45 ×
